At least one structure is not confirmed: it was looked up by name or label, or the drawing left a doubt.
Test system: PrSC cells
Test: Olmesartan: proliferation of TNFα-stimulated PrSC cells (Example 6)
Format: cell-based, human
Conditions: TNFα (1 ng/mL)+olmesartan (1 μM); 5 days; P<0.04
Experimental: PrSC cells were plated out on a 12-well dish at 20,000 cells per well, and cultured for 5 days in a phenol red-free F12 culture medium supplemented with 0.1% (W/V) BSA containing TNFα (1 ng/mL) alone or in combination with olmesartan (1 μM). Then the number of cells was counted. The group with no additive was used as the control group. Each group contained four wells (n=4).

Q: `CCCc1nc(C(C)(C)O)c(C(=O)O)n1Cc1ccc(-c2ccccc2-c2nnn[nH]2)cc1` [olmesartan] was tested. Which “increase in the number of cells” value did it give?
A: significantly suppressed

— patent publication US20070197562A1, “Remedies for prostatic hypertrophy” (Yokohama TLO Company, Ltd., priority 2004, published 2007)
